Measured data: PubChem BioAssay AID1259308 (NCATS, 2017)

- Screen: 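Genes whose loss raises luciferase production in HEK293 cells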 (primary screen)
- Cell system: human HEK293 embryonic kidney cells stably expressing firefly luciferase (HEK-CMV-Luc2-Hygro)
- Reagent: single siRNA against human genes, 0.8 pmol siRNA per well
- Duration: 72 h
- Measurement: 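Luciferase light (ONE-Glo) measured on one replicate plate set and viability (CellTiter-Glo) on the other, scaled to a negative control siRNA, with robust z-scores and luciferase per cell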
- Reading the numbers: total luciferase, z-score and total luciferase, % of control: higher = more reporter protein produced; luciferase per cell, z-score: higher = more reporter output per viable cell; viable cells, % of control: higher = more viable cells
- Hit rule: 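Active when the median/MAD z-score for overall luciferase is greater than 3; a gene was taken forward for validation with new siRNAs if at least two of its three siRNAs passed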
- Calls: active = raised luciferase; inactive = no rise
In all, the deposit lists about 59,000 reagents; shown is a part drawn at random. About 1,510 of all reagents (2.6%) were called active. 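Calls use total luciferase alone and ignore viability, so some active siRNAs may act by altering cell number.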 Unmarked entries are inactive. Reagents against one gene are numbered here.

| gene symbol | reagent no. | total luciferase, z-score | total luciferase, % of control | luciferase per cell, z-score | viable cells, % of control |
| --- | --- | --- | --- | --- | --- |
| BOC (BOC cell adhesion associated, oncogene regulated) | 1 | 2.08 | 123 | 1.93 | 82.8 |
| BOC (BOC cell adhesion associated, oncogene regulated) | 2 | 0.742 | 96.6 | 2.11 | 62 |
| BOC (BOC cell adhesion associated, oncogene regulated) | 3 | -0.445 | 73 | -0.836 | 102 |
| FLJ13224 | 1 | 0.424 | 90.3 | 0.514 | 88.2 |
| FLJ13224 | 2 | 0.753 | 96.9 | 0.806 | 87.5 |
| FLJ13224 | 3 | -0.885 | 64.3 | -0.964 | 92.6 |
| MTX1 (metaxin 1) | 1 | -0.0555 | 80.8 | 0.057 | 88.9 |
| MTX1 (metaxin 1) | 2 | 0.475 | 91.3 | 0.477 | 90 |
| MTX1 (metaxin 1) | 3 | -0.393 | 74.1 | -0.644 | 98.1 |
| ERCC1 (ERCC excision repair 1, endonuclease non-catalytic subunit) | 1 | 1.46 | 111 | 2.12 | 71.1 |
| ERCC1 (ERCC excision repair 1, endonuclease non-catalytic subunit) | 2 | -0.979 | 62.4 | -1.19 | 95.4 |
| ERCC1 (ERCC excision repair 1, endonuclease non-catalytic subunit) | 3 | -1.24 | 57.2 | -0.68 | 76.5 |
| CYSLTR1 (cysteinyl leukotriene receptor 1) | 1 | -0.929 | 63.4 | -1.03 | 92.9 |
| CYSLTR1 (cysteinyl leukotriene receptor 1) | 2 | 1.08 | 103 | 0.417 | 103 |
| CYSLTR1 (cysteinyl leukotriene receptor 1) | 3 | 0.692 | 95.7 | 0.0261 | 106 |
| MTG2 (mitochondrial ribosome associated GTPase 2) | 1 | -0.917 | 63.7 | -0.562 | 82.5 |
| MTG2 (mitochondrial ribosome associated GTPase 2) | 2 | -0.566 | 70.6 | 1.5 | 53.2 |
| MTG2 (mitochondrial ribosome associated GTPase 2) | 3 | -2.09 | 40.3 | -1.61 | 68.9 |
| OR2Y1 (olfactory receptor family 2 subfamily Y member 1) | 1 | 1.49 | 112 | 1.13 | 92.6 |
| OR2Y1 (olfactory receptor family 2 subfamily Y member 1) | 2 | 2.45 | 131 | 1.83 | 90 |
| OR2Y1 (olfactory receptor family 2 subfamily Y member 1) | 3 | 0.636 | 94.5 | 0.525 | 92 |
| CFAP69 (cilia and flagella associated protein 69) | 1 | 1.1 | 104 | 0.8 | 93.9 |
| CFAP69 (cilia and flagella associated protein 69) | 2 | -0.334 | 75.2 | 0.352 | 76.7 |
| CFAP69 (cilia and flagella associated protein 69) | 3 | -0.171 | 78.5 | -0.797 | 108 |
| PRDX3 (peroxiredoxin 3) | 1 | -2.55 | 31.1 | -1.36 | 49.8 |
| PRDX3 (peroxiredoxin 3) | 2 | 3.05 (active) | 142 | 3.03 | 71.6 |
| PRDX3 (peroxiredoxin 3) | 3 | -0.417 | 73.6 | -0.684 | 98.5 |
| ZNF157 (zinc finger protein 157) | 1 | 1.75 | 117 | 1.23 | 94.3 |
| ZNF157 (zinc finger protein 157) | 2 | 1.36 | 109 | 1.36 | 85 |
| ZNF157 (zinc finger protein 157) | 3 | -0.15 | 78.9 | -0.261 | 94.4 |

Next part; the last 4 above are carried over.
| gene symbol | reagent no. | total luciferase, z-score | total luciferase, % of control | luciferase per cell, z-score | viable cells, % of control |
| --- | --- | --- | --- | --- | --- |
| PRDX3 (peroxiredoxin 3) | 3 | -0.417 | 73.6 | -0.684 | 98.5 |
| ZNF157 (zinc finger protein 157) | 1 | 1.75 | 117 | 1.23 | 94.3 |
| ZNF157 (zinc finger protein 157) | 2 | 1.36 | 109 | 1.36 | 85 |
| ZNF157 (zinc finger protein 157) | 3 | -0.15 | 78.9 | -0.261 | 94.4 |
| PLEKHF2 (pleckstrin homology and FYVE domain containing 2) | 1 | 0.942 | 101 | 1.64 | 72.9 |
| PLEKHF2 (pleckstrin homology and FYVE domain containing 2) | 2 | 0.0909 | 83.7 | 0.121 | 90.6 |
| PLEKHF2 (pleckstrin homology and FYVE domain containing 2) | 3 | -0.232 | 77.3 | -0.518 | 99 |
| RUBCN (rubicon autophagy regulator) | 1 | 0.588 | 93.6 | -0.0149 | 105 |
| RUBCN (rubicon autophagy regulator) | 2 | -0.314 | 75.6 | -0.322 | 92 |
| RUBCN (rubicon autophagy regulator) | 3 | -0.93 | 63.4 | -0.0662 | 72.1 |
| ZNF770 (zinc finger protein 770) | 1 | 0.738 | 96.6 | 0.75 | 88.6 |
| ZNF770 (zinc finger protein 770) | 2 | 0.152 | 84.9 | 0.077 | 93 |
| ZNF770 (zinc finger protein 770) | 3 | -0.776 | 66.5 | -0.275 | 79.8 |
| HEPH (hephaestin) | 1 | 0.792 | 97.6 | 0.709 | 90.5 |
| HEPH (hephaestin) | 2 | -0.00815 | 81.7 | 0.173 | 87.3 |
| HEPH (hephaestin) | 3 | 1.51 | 112 | 1.37 | 87.2 |
| TOP2A (DNA topoisomerase II alpha) | 1 | 0.834 | 98.5 | -0.128 | 114 |
| TOP2A (DNA topoisomerase II alpha) | 2 | 0.877 | 99.3 | 0.901 | 87.6 |
| TOP2A (DNA topoisomerase II alpha) | 3 | 0.82 | 98.2 | 1.23 | 79.4 |
| MED12 (mediator complex subunit 12) | 1 | 1.18 | 105 | 1.36 | 82.4 |
| MED12 (mediator complex subunit 12) | 2 | -1.3 | 56 | -1.21 | 86 |
| MED12 (mediator complex subunit 12) | 3 | -2.21 | 38 | -2.61 | 84.4 |
| PRR4 (proline rich 4) | 1 | -0.42 | 73.5 | -1 | 107 |
| PRR4 (proline rich 4) | 2 | -1.44 | 53.3 | -2.1 | 104 |
| PRR4 (proline rich 4) | 3 | -1.75 | 47.1 | -1.07 | 69.9 |
| CCDC68 (coiled-coil domain containing 68) | 1 | 0.315 | 88.1 | -0.0498 | 99.8 |
| CCDC68 (coiled-coil domain containing 68) | 2 | 1.97 | 121 | 1.3 | 96 |
| CCDC68 (coiled-coil domain containing 68) | 3 | 0.186 | 85.6 | -0.408 | 106 |
| ITGA11 (integrin subunit alpha 11) | 1 | 1.75 | 117 | 1.7 | 83.4 |
| ITGA11 (integrin subunit alpha 11) | 2 | -0.852 | 64.9 | -1.03 | 95.1 |
| ITGA11 (integrin subunit alpha 11) | 3 | 0.988 | 102 | 0.328 | 104 |
